The supplement of paper PMC10849652
Some of the results follow.

The chains behind the UniProt entries cited, without tags or fusion partners. Where a name states a change or a piece, a line headed by the entry shows the natural chain unless it says otherwise.
UniProt Q9UDW1: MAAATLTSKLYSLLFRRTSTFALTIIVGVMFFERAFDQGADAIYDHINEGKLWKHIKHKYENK
UniProt P55851: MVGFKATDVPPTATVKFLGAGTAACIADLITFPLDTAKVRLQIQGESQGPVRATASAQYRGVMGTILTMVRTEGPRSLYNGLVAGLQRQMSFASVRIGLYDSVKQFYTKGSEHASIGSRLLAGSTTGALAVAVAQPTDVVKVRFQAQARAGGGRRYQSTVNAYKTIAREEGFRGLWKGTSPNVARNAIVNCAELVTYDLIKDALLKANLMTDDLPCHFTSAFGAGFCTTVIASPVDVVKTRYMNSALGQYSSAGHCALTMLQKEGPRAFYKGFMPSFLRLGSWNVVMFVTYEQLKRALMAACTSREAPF
UniProt Q8TEY7: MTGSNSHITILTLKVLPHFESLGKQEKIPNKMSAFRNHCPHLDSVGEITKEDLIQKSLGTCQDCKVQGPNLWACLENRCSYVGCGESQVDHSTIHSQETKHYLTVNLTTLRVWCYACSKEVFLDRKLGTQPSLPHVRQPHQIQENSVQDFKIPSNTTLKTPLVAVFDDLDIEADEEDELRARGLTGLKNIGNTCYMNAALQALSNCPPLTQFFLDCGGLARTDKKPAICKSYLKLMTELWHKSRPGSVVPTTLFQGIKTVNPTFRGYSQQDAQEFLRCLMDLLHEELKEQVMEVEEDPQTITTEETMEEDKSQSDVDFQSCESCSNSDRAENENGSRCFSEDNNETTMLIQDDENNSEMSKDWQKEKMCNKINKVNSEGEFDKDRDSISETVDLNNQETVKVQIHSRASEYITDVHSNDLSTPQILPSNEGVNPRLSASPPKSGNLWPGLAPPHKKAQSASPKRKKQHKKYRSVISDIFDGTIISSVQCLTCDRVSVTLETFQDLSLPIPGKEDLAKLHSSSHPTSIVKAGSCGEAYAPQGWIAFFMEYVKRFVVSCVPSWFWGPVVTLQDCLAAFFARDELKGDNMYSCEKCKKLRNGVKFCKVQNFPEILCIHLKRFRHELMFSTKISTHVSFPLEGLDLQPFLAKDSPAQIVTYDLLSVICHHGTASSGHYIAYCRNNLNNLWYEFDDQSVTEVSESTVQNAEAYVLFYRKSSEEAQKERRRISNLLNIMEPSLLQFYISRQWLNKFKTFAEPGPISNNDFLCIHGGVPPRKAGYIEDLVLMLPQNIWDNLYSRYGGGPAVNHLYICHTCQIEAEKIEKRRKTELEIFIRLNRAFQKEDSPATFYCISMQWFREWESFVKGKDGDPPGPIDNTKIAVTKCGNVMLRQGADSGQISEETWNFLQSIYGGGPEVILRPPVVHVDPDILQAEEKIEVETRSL
UniProt Q92738: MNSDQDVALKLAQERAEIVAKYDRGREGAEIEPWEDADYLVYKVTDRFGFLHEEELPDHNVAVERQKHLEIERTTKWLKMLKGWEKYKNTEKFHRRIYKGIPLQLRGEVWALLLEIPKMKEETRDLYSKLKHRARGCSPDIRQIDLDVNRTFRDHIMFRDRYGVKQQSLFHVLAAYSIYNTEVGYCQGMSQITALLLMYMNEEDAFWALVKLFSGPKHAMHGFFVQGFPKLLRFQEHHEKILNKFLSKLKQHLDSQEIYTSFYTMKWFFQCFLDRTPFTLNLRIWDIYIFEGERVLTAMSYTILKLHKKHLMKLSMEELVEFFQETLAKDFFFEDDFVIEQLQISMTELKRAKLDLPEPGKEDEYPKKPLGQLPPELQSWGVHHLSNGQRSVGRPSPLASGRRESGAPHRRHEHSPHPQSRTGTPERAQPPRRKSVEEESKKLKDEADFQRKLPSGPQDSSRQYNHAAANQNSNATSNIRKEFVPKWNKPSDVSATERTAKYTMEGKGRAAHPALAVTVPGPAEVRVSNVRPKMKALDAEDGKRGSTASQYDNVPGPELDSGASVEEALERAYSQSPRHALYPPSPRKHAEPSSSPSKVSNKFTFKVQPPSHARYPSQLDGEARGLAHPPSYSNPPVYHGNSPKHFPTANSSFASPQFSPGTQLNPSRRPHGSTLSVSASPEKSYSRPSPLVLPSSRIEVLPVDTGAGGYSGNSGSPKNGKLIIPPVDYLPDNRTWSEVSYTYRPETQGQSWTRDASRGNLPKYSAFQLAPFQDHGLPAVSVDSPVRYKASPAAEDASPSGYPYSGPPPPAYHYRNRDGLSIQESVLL
UniProt Q70EL1: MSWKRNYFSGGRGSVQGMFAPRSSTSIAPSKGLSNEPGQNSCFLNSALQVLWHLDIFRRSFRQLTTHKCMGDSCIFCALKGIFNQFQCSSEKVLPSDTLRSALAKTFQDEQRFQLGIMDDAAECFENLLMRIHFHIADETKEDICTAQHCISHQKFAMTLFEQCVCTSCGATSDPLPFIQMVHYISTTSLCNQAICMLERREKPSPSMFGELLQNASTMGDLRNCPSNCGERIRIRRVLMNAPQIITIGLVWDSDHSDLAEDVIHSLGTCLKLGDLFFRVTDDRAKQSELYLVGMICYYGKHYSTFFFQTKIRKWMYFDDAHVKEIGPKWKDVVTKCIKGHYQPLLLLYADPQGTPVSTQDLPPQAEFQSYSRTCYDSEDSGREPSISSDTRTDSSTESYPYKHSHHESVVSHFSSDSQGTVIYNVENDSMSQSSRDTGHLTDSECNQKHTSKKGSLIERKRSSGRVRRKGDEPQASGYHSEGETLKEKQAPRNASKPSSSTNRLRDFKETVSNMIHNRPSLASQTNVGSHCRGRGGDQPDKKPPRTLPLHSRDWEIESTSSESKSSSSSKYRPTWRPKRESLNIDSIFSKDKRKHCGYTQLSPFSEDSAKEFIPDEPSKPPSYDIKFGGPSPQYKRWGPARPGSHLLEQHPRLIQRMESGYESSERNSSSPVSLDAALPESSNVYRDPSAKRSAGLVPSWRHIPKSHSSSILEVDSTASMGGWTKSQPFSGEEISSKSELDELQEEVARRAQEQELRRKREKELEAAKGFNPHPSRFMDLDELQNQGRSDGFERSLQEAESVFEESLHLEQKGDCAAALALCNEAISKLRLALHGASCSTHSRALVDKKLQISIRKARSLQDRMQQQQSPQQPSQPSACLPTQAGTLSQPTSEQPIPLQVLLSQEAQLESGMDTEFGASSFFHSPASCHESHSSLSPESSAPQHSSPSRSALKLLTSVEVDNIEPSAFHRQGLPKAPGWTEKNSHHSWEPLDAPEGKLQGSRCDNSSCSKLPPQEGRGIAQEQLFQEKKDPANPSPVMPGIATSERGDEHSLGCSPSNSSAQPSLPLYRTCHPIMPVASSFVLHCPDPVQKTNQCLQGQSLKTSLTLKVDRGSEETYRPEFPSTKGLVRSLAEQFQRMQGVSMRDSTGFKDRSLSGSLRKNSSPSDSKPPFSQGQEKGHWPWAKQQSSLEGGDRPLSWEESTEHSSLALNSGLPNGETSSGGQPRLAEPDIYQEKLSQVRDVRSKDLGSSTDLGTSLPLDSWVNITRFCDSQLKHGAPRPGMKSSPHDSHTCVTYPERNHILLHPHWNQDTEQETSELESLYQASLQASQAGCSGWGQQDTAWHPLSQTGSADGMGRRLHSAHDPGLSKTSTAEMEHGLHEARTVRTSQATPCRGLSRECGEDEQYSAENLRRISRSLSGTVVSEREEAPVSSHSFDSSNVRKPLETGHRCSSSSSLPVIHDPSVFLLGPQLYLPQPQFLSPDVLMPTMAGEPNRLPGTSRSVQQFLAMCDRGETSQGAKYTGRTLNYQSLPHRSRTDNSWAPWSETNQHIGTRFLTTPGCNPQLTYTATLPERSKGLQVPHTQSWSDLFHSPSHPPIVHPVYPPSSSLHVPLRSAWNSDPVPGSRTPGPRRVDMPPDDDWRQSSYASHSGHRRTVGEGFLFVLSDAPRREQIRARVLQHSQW
UniProt Q14135: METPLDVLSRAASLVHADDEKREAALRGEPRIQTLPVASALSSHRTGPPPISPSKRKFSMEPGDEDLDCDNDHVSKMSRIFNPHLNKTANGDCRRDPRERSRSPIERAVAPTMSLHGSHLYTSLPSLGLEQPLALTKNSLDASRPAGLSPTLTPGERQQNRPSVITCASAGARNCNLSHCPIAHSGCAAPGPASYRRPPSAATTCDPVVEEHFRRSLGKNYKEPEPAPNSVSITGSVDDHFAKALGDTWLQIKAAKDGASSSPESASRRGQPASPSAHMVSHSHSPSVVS
UniProt P40337, whole entry, looked up: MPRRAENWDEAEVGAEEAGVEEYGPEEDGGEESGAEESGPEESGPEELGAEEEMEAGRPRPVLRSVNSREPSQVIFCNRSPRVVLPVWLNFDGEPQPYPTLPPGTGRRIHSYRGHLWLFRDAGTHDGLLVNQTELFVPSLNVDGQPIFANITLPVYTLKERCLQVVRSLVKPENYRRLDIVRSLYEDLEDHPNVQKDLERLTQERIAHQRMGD
UniProt C9J7I0: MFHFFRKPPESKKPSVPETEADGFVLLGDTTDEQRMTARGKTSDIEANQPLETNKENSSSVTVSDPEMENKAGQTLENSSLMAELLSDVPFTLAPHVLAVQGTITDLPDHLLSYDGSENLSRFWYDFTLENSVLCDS
UniProt O75317, whole entry, looked up: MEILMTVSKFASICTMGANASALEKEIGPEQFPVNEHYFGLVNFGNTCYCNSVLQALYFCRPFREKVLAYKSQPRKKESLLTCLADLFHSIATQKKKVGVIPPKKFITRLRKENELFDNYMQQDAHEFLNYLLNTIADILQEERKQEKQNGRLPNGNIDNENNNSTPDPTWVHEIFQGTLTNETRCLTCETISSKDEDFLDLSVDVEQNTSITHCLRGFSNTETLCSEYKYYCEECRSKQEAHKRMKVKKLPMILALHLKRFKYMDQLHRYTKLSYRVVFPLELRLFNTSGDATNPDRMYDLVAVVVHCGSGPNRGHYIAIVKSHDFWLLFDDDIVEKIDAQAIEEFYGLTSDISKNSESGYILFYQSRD
UniProt O94966: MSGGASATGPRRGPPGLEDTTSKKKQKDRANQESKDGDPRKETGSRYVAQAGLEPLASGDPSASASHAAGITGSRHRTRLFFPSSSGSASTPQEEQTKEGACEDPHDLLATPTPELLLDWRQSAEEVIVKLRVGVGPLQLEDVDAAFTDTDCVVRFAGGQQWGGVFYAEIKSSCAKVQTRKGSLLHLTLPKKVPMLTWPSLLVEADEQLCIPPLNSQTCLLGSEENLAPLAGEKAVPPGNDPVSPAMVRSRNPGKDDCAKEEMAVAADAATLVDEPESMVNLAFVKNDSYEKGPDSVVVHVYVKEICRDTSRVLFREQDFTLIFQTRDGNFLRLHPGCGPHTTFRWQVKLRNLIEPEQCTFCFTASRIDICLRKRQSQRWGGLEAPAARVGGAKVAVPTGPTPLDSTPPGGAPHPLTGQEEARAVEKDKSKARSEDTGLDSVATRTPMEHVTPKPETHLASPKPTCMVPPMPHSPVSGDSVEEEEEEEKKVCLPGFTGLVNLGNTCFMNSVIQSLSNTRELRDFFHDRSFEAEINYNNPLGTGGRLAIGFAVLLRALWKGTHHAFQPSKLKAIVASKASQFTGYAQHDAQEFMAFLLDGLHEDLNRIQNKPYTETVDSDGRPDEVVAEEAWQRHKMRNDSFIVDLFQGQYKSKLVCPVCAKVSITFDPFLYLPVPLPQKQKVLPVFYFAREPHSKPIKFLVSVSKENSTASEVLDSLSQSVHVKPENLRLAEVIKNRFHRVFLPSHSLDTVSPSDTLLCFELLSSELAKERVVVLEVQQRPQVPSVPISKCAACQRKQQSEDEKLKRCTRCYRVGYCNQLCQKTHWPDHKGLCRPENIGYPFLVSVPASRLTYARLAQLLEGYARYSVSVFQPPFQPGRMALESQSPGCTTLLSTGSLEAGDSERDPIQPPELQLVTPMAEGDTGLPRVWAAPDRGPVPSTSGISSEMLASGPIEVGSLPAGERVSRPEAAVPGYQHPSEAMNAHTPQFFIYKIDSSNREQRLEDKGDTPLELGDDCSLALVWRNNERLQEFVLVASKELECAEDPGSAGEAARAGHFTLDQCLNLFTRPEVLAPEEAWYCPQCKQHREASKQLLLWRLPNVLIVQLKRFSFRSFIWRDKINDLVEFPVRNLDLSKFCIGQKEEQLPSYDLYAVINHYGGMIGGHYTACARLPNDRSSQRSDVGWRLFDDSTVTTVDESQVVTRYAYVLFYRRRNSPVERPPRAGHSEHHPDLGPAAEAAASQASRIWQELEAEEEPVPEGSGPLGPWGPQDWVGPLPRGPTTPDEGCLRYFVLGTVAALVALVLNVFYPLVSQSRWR
UniProt P15692, whole entry, looked up: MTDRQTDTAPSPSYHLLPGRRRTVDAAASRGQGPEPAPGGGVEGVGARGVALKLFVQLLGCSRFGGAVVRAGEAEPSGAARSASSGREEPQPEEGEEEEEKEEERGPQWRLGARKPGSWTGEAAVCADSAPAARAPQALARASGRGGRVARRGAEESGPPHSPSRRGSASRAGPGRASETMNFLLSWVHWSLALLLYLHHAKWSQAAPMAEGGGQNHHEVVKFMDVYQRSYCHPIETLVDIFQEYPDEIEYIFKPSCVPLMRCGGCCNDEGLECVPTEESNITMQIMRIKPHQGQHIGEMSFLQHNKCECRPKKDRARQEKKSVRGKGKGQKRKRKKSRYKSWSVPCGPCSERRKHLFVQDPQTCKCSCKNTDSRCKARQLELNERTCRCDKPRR

Columns and labels:
Assay in all cases: log2 fold change, soluble protein after heating vs DMSO (PISA); higher = thermal stabilisation; K562 lysate, 10 uM; active = over 0.2 and 3.5 SD of the protein, either way, in both replicates (recomputed)
[1] = compound: CS(=O)(=O)CCNCc1ccc(-c2ccc3ncnc(Nc4ccc(OCc5cccc(F)c5)c(Cl)c4)c3c2)o1 [lapatinib]
In short: (§1)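 K562 pellets were dounce-homogenised in PBS pH 7.4 containing 1 mM MgCl2, and the crude extract, at 1 mg/mL protein, was exposed to 10 μM compound for 30 min. Aliquots were heated for 3 min across 48°C-58°C, pooled, brought to 0.5% NP-40 at 4°C and spun at 21,000xg for 90 min, with the supernatant taken as soluble protein. TMTpro 16plex LC-MS/MS with equalised channel sums quantified that protein. Values are log-two fold changes in thermal stability relative to solvent controls, taken from duplicates.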

[2] = compound: CS(=O)(=O)N1CCN(Cc2cc3nc(-c4cccc5[nH]ncc45)nc(N4CCOCC4)c3s2)CC1 [pictilisib]
In short: as §1

[3] = compound: Cc1cc(Nc2cc(N3CCN(C)CC3)nc(Sc3ccc(NC(=O)C4CC4)cc3)n2)n[nH]1 [tozasertib]
In short: as §1

[4] = compound: Cc1ccc(NC(=O)c2ccc(CN3CC[C@H](N(C)C)C3)c(C(F)(F)F)c2)cc1Nc1nccc(-c2cncnc2)n1 [bafetinib]
In short: as §1

[5] = compound: C[C@@H](Oc1cc(-c2cnn(C3CCNCC3)c2)cnc1N)c1c(Cl)ccc(F)c1Cl [crizotinib]
In short: as §1

[6] = compound: C[C@H](C1=CC=C(C=C1)C(=O)NC2=C3C=CNC3=NC=C2)N
In short: as §1

[7] = compound: C[C@H](Nc1ncnc2nc[nH]c12)c1cc2cccc(Cl)c2c(=O)n1-c1ccccc1 [duvelisib]
In short: as §1

[8] = compound: Cc1cc(Nc2cc(CN3CCOCC3)c3nc(C)c(Cc4ccc(Cl)cc4F)n3n2)n[nH]1 [gandotinib]
In short: as §1

[9] = compound: Cc1ccc(-n2nc(C(C)(C)C)cc2NC(=O)Nc2ccc(OCCN3CCOCC3)c3ccccc23)cc1 [doramapimod]
In short: as §1

[10] = compound: Cc1cccc(CC(=O)N2CCc3c2ccc(-c2cn(C)c4ncnc(N)c24)c3F)n1
In short: as §1

Target	log2 fold change [1]	log2 fold change [2]	log2 fold change [3]	log2 fold change [4]	log2 fold change [5]	log2 fold change [6]	log2 fold change [7]	log2 fold change [8]	log2 fold change [9]	log2 fold change [10]
UROD (UniProt H0Y5R6)	inactive: -0.105	inactive: 0.13	inactive: 0.19	inactive: -0.407	–	–	–	–	–	–
UQCR10 (UniProt Q9UDW1)	inactive: -0.01	–	inactive: 0.005	–	inactive: -0.05	inactive: -0.199	inactive: 0.011	inactive: 0.023	inactive: 0.04	inactive: 0.188
UCP2 (UniProt P55851)	–	–	–	–	active: -0.441	–	–	–	inactive: -0.141	–
USP33 (UniProt Q8TEY7)	–	–	–	–	inactive: -0.476	inactive: -0.362	inactive: 0.227	inactive: -0.237	inactive: 0.182	inactive: 0.15
USP6NL isoform 2 (UniProt Q92738)	inactive: -0.032	–	inactive: -0.098	–	inactive: -0.224	inactive: 0.018	–	inactive: 0.029	inactive: -0.003	inactive: -0.035
VEGFA (UniProt H0YBI8)	–	–	–	–	–	inactive: 0.026	–	inactive: 0.053	–	inactive: -0.049
USP37 (UniProt Q86T82)	–	–	inactive: -0.035	–	inactive: -0.021	–	–	–	inactive: -0.093	–
USP54 (UniProt Q70EL1)	–	–	–	–	inactive: -0.029	–	–	–	inactive: -0.087	–
VGLL4 isoform 4 (UniProt Q14135)	–	inactive: -0.133	–	inactive: 0.205	inactive: 0.109	inactive: -0.077	inactive: -0.027	inactive: 0.063	inactive: 0.067	inactive: -0.079
UNC119 (UniProt Q13432)	–	–	–	–	inactive: -0.002	–	inactive: 0.029	–	inactive: 0.111	–
VHL (UniProt P40337)	–	inactive: -0.003	inactive: 0	inactive: 0.092	inactive: 0.017	active: -0.538	inactive: 0.148	inactive: -0.08	inactive: -0.011	inactive: -0.021
UNC13B isoform 2 (UniProt O14795)	inactive: -0.111	–	inactive: 0.037	–	inactive: 0	–	inactive: -0.064	–	inactive: 0.07	–
UMAD1 (UniProt C9J7I0)	inactive: 0.198	–	–	–	inactive: 0.082	inactive: 0.178	inactive: 0.05	inactive: -0.157	inactive: 0.017	inactive: 0.055
USP12 (UniProt O75317)	inactive: -0.072	–	inactive: -0.082	–	inactive: -0.054	inactive: -0.067	–	inactive: 0.096	inactive: 0.198	inactive: 0.093
USP19 isoform 4 (UniProt O94966)	inactive: 0.1	–	inactive: -0.058	–	–	–	inactive: -0.05	–	–	–
VEGFA isoform 14 (UniProt P15692)	–	–	–	–	inactive: 0.036	inactive: -0.049	–	inactive: -0.167	inactive: -0.032	inactive: 0.016

Quoted from the listing.
Entry for VEGFA (UniProt H0YBI8) under log2 fold change [10]: inactive: -0.049
Entry for UQCR10 (UniProt Q9UDW1) under log2 fold change [6]: inactive: -0.199
